Earlier results in patent US7662178B2 (priority 2001, dated 2010).
At least one structure is not confirmed: it was looked up by name or label, or the drawing left a doubt.

Assays:
smooth muscle cell (SMC) = settings: both in vitro and in vivo; block at G1/S transition
SMC = settings: rats, pigs and humans
vascular SMC [1] = test system: vascular SMC
vascular SMC [2] = test system: vascular SMC; remark: listed apart in the source

Structure (SMILES): CO[C@H]1C[C@@H]2CC[C@@H](C)[C@@](O)(O2)C(=O)C(=O)N2CCCC[C@H]2C(=O)O[C@H]([C@H](C)C[C@@H]2CC[C@@H](O)[C@H](OC)C2)CC(=O)[C@H](C)/C=C(\C)[C@@H](O)[C@@H](OC)C(=O)[C@H](C)C[C@H](C)/C=C/C=C/C=C/1C [Rapamycin, rapamycin]
- SMC proliferation (smooth muscle cell (SMC)): inhibits
- SMC migration (SMC): inhibit
- SMC migration (vascular SMC [1]): potent inhibitory effects and not
- vascular SMC migration (vascular SMC [1]): inhibits
- down-regulation of p27^kip1 by mitogens (p27^kip1): blocked
- p27 levels (p27^kip1): increases
- vascular SMC migration in vitro (vascular SMC [2]): inhibits
